Positions count from the first letter of the chain named. No constants are given. Whether binding was seen depends on the method and setting. Binding seen in cells or lysates may run through a third protein. For part of these data: A result given as binding can be weak or reduced; the word gives no strength. Tags and fused reporters may be left off the sequences shown.
Tests used:
[1] = target: T1, 3×Flag-tagged wild-type porcine cGAS (porcine) (UniProt I3LM39); assay: co-IP; cGAS-/- PK-15 cells transfected with HA-p62 and 3×Flag-cGAS or 3×Flag-cGAS (K389R) (S3F Fig)
T1 sequence (chain, in PCV2-infected cells, K48-linked poly-ubiquitin at K389; phosphoserine at S278): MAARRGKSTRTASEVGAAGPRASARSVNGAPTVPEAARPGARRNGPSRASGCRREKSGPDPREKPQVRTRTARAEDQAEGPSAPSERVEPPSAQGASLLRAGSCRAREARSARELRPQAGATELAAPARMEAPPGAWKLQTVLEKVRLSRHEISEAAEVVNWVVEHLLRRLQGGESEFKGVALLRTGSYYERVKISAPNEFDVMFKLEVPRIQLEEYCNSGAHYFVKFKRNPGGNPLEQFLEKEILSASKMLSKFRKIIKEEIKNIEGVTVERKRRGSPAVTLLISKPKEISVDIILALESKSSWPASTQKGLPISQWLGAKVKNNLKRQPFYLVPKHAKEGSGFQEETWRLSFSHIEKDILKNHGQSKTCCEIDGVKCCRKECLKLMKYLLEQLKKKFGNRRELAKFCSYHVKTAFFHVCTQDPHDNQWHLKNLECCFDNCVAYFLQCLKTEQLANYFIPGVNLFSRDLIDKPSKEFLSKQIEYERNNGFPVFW

Protein sequences, listed by entry. Tags and fused reporters are not part of them. Lines headed by an entry give the natural chain unless they say otherwise; changes in a name come on top.
UniProt I3LEZ7: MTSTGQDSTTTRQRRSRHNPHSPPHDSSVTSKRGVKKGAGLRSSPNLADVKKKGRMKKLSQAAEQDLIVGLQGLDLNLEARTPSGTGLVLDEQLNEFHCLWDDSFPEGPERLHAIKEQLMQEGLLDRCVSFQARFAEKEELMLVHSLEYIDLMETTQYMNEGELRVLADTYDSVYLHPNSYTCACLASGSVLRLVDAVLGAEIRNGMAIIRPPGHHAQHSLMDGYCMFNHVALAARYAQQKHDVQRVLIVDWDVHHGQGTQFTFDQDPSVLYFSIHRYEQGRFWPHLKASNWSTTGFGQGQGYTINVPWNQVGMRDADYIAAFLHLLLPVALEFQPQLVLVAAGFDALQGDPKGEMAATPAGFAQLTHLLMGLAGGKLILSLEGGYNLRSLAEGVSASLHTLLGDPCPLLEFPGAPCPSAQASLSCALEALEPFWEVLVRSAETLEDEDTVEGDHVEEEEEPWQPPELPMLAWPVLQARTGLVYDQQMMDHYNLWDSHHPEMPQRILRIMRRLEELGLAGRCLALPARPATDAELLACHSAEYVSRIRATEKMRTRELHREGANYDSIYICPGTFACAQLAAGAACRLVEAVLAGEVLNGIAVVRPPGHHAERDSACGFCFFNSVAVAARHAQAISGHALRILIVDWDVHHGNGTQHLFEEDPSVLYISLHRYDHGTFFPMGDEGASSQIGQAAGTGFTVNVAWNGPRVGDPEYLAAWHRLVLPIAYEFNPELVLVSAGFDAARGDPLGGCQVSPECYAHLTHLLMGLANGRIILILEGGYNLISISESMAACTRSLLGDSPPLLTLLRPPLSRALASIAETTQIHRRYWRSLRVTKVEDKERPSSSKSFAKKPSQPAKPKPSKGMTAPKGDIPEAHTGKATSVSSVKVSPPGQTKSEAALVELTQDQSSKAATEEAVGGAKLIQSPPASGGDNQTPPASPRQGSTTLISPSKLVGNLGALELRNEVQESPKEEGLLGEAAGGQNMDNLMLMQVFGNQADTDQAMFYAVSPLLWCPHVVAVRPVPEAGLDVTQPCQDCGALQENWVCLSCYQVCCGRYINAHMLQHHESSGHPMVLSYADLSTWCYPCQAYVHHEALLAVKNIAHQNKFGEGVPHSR

[2] = target: T2, 3×Flag-tagged porcine cGAS (K389R) (porcine) (UniProt I3LM39); assay: co-IP; PK-15 or cGAS-/- PK-15 cells transfected with Flag-cGAS constructs, infected with PCV2 (MOI = 5), mostly with Baf, 48 h; lysis buffer 150 mM NaCl, 50 mM Tris-HCl pH 7.4, 1% Nonidet P-40, 0.5% Triton X-100; antibody overnight at 4°C, protein G/A agarose; immunoblot. Treatments also tested for cGAS with p62: siHDAC6, reconstitution with HDAC6 FL, ΔUBD or HDAC6-3M, Tubastatin A, EBSS
T2 sequence: T1 sequence (chain, in PCV2-infected cells, K48-linked poly-ubiquitin at K389; phosphoserine at S278) with K389R

[3] = target: T1, 3×Flag-tagged wild-type porcine cGAS (porcine); assay: as above

Substance | binding [1] | binding [2] | binding [3]
HA-p62 | binds | – | –
histone deacetylase 6 (HDAC6), endogenous (from UniProt I3LEZ7) | – | no binding | binds

Reference: publication PMC8483418
